Measured values taken from article PMC2644676.
No constants are given. Whether binding was seen depends on the method and setting. For some of these results: Binding seen in cells or lysates may run through a third protein. Some entries that bind do so weakly or less than the wild type. One block for each substance: values may come before it.

The chains behind the UniProt entries cited, without tags or fusion partners. Where a name states a change or a piece, a line headed by the entry shows the natural chain unless it says otherwise.
UniProt P42771: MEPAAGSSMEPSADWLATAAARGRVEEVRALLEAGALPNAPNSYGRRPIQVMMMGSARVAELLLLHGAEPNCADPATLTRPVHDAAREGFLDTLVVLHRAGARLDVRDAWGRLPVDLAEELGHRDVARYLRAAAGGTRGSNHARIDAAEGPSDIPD
UniProt P51532: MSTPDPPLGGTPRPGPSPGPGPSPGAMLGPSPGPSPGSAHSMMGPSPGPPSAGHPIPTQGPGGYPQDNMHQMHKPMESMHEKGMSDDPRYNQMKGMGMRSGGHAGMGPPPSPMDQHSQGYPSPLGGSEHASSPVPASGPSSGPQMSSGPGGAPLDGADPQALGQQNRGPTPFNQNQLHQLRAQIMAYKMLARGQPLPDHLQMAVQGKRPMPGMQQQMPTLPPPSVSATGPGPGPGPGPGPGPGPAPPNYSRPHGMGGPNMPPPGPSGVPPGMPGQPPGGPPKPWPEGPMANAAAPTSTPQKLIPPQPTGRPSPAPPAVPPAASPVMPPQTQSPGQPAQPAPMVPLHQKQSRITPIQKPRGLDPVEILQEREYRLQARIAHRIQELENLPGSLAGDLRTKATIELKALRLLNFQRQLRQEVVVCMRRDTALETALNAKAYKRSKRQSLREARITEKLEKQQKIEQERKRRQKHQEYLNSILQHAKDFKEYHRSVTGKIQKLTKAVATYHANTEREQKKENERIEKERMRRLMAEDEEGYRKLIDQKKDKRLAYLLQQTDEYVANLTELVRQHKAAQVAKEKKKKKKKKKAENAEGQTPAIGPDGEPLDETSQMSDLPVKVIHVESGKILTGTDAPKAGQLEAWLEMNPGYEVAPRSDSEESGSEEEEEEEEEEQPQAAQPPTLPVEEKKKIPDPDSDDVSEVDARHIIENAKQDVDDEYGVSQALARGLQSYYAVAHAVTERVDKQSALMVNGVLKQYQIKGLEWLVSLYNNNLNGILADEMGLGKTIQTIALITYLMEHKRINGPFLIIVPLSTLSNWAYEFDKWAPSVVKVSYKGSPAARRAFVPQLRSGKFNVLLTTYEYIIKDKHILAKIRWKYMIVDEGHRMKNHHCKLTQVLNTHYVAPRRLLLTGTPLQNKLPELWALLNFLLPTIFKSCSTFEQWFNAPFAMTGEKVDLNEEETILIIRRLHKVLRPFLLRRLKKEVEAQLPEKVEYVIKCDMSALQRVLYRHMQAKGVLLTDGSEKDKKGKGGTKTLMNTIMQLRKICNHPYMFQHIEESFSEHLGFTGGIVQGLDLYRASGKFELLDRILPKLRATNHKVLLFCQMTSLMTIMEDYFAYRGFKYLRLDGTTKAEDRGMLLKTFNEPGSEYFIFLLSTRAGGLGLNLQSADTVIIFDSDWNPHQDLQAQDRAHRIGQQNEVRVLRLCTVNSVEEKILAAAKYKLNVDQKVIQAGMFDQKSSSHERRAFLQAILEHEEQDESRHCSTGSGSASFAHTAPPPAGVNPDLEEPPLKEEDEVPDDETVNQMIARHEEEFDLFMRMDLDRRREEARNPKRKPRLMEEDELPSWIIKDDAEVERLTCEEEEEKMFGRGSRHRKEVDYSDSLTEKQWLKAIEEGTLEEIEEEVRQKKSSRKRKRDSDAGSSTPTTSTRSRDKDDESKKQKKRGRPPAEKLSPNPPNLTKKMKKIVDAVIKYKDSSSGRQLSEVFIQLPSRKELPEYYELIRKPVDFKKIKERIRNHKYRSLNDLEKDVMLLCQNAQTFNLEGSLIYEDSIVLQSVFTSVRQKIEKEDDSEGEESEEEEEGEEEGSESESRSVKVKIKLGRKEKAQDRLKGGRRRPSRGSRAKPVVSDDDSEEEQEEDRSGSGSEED

Tests used:
[1] = target: p16^INK4a (full-length human, Gal4 binding domain fusion, yeast two-hybrid bait) (human) (UniProt P42771); experiment: two-hybrid; Matchmaker2 Gal4 system, Y190 yeast; p16^INK4a in pAS2 (Gal4 binding domain) as bait, human brain cDNA library in pACT2 (Gal4 transactivation domain) as prey
[2] = target: FLAG-tagged BRG1 (full-length) (UniProt P51532); experiment: co-IP; U2OS cells co-transfected with MYC-p16^INK4a and FLAG-BRG1, lysed 24 h later in IP-buffer (50 mM Tris pH7.4, 150 mM NaCl, 1 mM EDTA, 1% NP-40, 0.25% sodium deoxycholate); precipitated with mouse anti-Flag antibody on Dynal beads, matched mouse IgG and control vector as controls
[3] = target: p16^INK4a induced with IPTG in WMM1175_p16^INK4a melanoma cells (human) (UniProt P42771); experiment: co-IP; 5 mg nuclear lysate of WMM1175_p16^INK4a cells induced with 4 mM IPTG or mock treated for 72 hours; precipitated with mouse anti-p16^INK4a antibody or matched mouse IgG, protein-A-agarose; endogenous BRG1 detected by blot
[4] = target: endogenous p16^INK4a of WS-1 normal human dermal fibroblasts (human (endogenous in WS-1)) (UniProt P42771); experiment: co-IP; 5 mg nuclear lysate of WS-1 normal human dermal fibroblasts at passage 20; precipitated with mouse anti-p16^INK4a antibody or matched mouse IgG, protein-A-agarose; endogenous BRG1 detected by blot

binding [1]: binds
Substance: BRG1, C-terminal 530 amino acids (Y2H clone, Gal4 transactivation domain fusion) (from UniProt P51532 1118-1647) (domain or fragment)

binding [2]: binds
Substance: MYC-tagged p16^INK4a (from UniProt P42771 1-156)

binding [3]: binds | binding [4]: binds
Substance: endogenous BRG1 (from UniProt P51532 1-1647)
